Source: PubChem BioAssay AID1347076 (National Center for Advancing Translational Sciences (NCATS), 2019)
Hit rate of the full screen: of about 400,000 compounds, about 13,000 (3.2%) were called active. Inconclusive results, whose numbers are uncertain, are shown with a selection of clear calls. The call rests on the fitted dose curve; in most records, active means well fitted cell-killing curve with a large enough effect; inconclusive means small, poorly fitted or top-dose-only effect, or effect the other way; inactive means flat fitted curve, though single readings scatter. Potencies beside an inconclusive call are fits to weak or partial responses and may not hold up.

Assay: qHTS assay for MDR1-selective chemotherapeutics: Primary screen using the drug-selected MDR subline cells KB-V1; further: nearly all actives have a fitted effect of over 60% in size
Details: KB-V1 MDR cells viability, CellTiter-Glo, 72 h; series mostly up to 46.1 µM
Outline: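 Cells of the MDR subline KB-V1 are plated, dosed with compound at multiple concentrations, and incubated 72 h at 37 degrees C; CellTiter-Glo is then added and luminescence read after 10 min.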
Potency means the concentration at half of the fitted maximal effect.

Row | SMILES | Potency
1 | CCOc1ccc(CCNC(=O)C2CCN(S(=O)(=O)N3CCCCC3)CC2)cc1OCC | inconclusive: 20.6 µM [cytotoxic, single point]
2 | COc1ccccc1C1CC(c2ccc(Br)cc2)=NN1C(=O)c1cccnc1 (configuration not stated) | inconclusive: 32.6 µM [cytotoxic, single point]
3 | COc1ccc([C@H]2[C@H](C(=O)C(C)(C)C)N3N=Cc4ccccc4C3[C@]23N=C(c2ccccc2)OC3=O)cc1 (some centres not stated) | inconclusive: 6.51 µM [cytotoxic, partial curve]
4 | O=C(COC(=O)/C=C/c1nc2ccccc2s1)Nc1cccc(Cl)c1Cl | inconclusive: 16.4 µM [rising, partial curve, poor fit]
5 | CCCc1ccc(S(=O)(=O)N2CCC(Oc3ccc(-n4cnnn4)cc3)CC2)cc1 | inconclusive: 18.4 µM [cytotoxic, single point]
6 | COc1ccc(C2=NN(C(=O)CN3CCCCC3)C(c3ccc(OC)cc3)C2)cc1 (configuration not stated) | inactive
7 | CCC(C)Nc1ncnc2c1cnn2Cc1ccc(Cl)cc1 (configuration not stated) | inconclusive: 23.1 µM [cytotoxic, single point]
8 | CC(C)CN(C(=O)CSc1nc(-c2ccccc2)cn1N)c1c(N)n(Cc2ccccc2)c(=O)[nH]c1=O | inconclusive: 29.1 µM [rising, single point]
9 | COc1ccc2o/c(=N/NC(=O)c3cccs3)c(C(N)=O)cc2c1 | inconclusive: 32.6 µM [cytotoxic, partial curve, poor fit]
10 | Cc1oc(-c2ccccc2Cl)nc1CN1CCCN(C(=O)c2ccco2)CC1 | inactive
11 | CCOc1ccc(C(=O)NC2CC3CCCC(C2)N3CC(C)C)cc1 (configuration not stated) | inconclusive: 11.6 µM [cytotoxic, single point]
12 | CCC(CC)NC(=O)c1cccc(Oc2ccccc2)c1 | active: 23.1 µM
13 | CCC(=O)N1c2ccc(S(=O)(=O)N3CCC(C)CC3)cc2CC1C (configuration not stated) | inconclusive: 11.6 µM [cytotoxic, partial curve]
14 | COc1ccc(CCNC(=O)CCCn2c(=O)c3ccccc3n(Cc3c(C)cc(C)cc3C)c2=O)cc1OC | inconclusive: 23.1 µM [rising, partial curve, poor fit]
15 | Cc1ccc(-c2nnc(NC(=O)Nc3ccc4ccccc4c3)s2)cc1 | inconclusive: 29.1 µM [rising, single point]
16 | CCCC(=O)Nc1nc2ccc(S(N)(=O)=O)cc2s1 | inconclusive: 20.6 µM [rising, single point]
17 | CCCCC(CC)CNC(=O)C1CCC(CNS(=O)(=O)c2cccc3nsnc23)CC1 (configuration not stated) | inconclusive: 4.61 µM [cytotoxic, partial curve, poor fit]
18 | Nc1cc(=O)[nH]c(SCCSc2ccccc2)n1 | active: 7.31 µM
19 | CCOc1cc(S(=O)(=O)NCCCN2CCOCC2)c(C)cc1C | inconclusive: 13 µM [cytotoxic, partial curve]
20 | COc1cc2[nH]c(=S)n(CCN3CCCCC3C)c(=O)c2cc1OC (configuration not stated) | inconclusive: 9.2 µM [cytotoxic, partial curve, poor fit]
21 | CCOC(=O)c1ccc(NC(=O)N2CCN(C3CCCCC3)CC2)cc1 | inconclusive: 20.6 µM [cytotoxic, partial curve, poor fit]

3 structures already listed, arranged by molar mass, ascending.
Row | SMILES | Potency
12 | CCC(CC)NC(=O)c1cccc(Oc2ccccc2)c1 | active: 23.1 µM
17 | CCCCC(CC)CNC(=O)C1CCC(CNS(=O)(=O)c2cccc3nsnc23)CC1 (configuration not stated) | inconclusive: 4.61 µM [cytotoxic, partial curve, poor fit]
3 | COc1ccc([C@H]2[C@H](C(=O)C(C)(C)C)N3N=Cc4ccccc4C3[C@]23N=C(c2ccccc2)OC3=O)cc1 (some centres not stated) | inconclusive: 6.51 µM [cytotoxic, partial curve]

(next part)

Row | SMILES | Potency
22 | Cc1nc2ccccc2n1CCOc1ccc([N+](=O)[O-])cc1 | inactive
23 | COc1ccc(N2C(=O)C3NN=C(C(=O)OCc4ccccc4)C3C2=O)cc1 (configuration not stated) | inactive
24 | O=S(=O)(c1ccc(-c2cn3ccccc3n2)cc1)N1CCOCC1 | inconclusive: 11.2 µM [cytotoxic, single point]
25 | Cc1cc(C)nc(SCC(=O)Nc2ncc3c(n2)CC(C)(C)CC3=O)n1 | inconclusive: 13 µM [cytotoxic, partial curve, poor fit]
26 | COc1cc(NC(=O)CSc2nc(-c3ccc(C)cc3)nc3c2Cc2ccccc2O3)cc(OC)c1 | inconclusive: 20.6 µM [rising, single point]
27 | COc1ccccc1NC(=O)N1CCc2[nH]c3ccc(Cl)cc3c2C1 | inconclusive: 8.2 µM [cytotoxic, partial curve]
28 | CC(C)(C)CC(C)(C)NCC(O)COCCOc1ccc(Br)cc1 (configuration not stated) | inconclusive: 20.6 µM [cytotoxic, partial curve, poor fit]
29 | O=C(Cc1cccc2ccccc12)N/N=C/C=C/c1cccc([N+](=O)[O-])c1 | inconclusive: 16.4 µM [cytotoxic, single point]
30 | N#Cc1ccc(CSc2nc3c(c(=O)[nH]2)CCC3)cc1 | inactive
31 | COCOCCn1cc(CN2CCS(=O)(=O)N(Cc3ccc(-c4ccc(Cl)c(Cl)c4)cc3)C(C(C)C)C2=O)nn1 (configuration not stated) | inactive
32 | COc1cccc2sc(N3CCN(C(=O)c4ccco4)CC3)nc12 | inconclusive: 6.51 µM [cytotoxic, partial curve]
33 | OCCn1c(-c2ccccc2)csc1=Nc1ccccc1 | active: 14.6 µM
34 | COc1ccc(CNCc2cccc(OC)c2OC)cc1Br | inconclusive: 10.3 µM [cytotoxic, partial curve, poor fit]
35 | CC(C)(C)[C@H]1COC(=O)[C@@H](Cc2ccc(F)cc2)C/C=C\C[C@@H](CC(=O)N[C@H](CO)Cc2ccccc2)C(=O)N1 | inactive
36 | COc1ccc(OC)c(NC(=O)Cn2cc(C=O)c3ccccc32)c1 | inactive
37 | Cc1ccccc1Cn1cnc2ccccc21 | inconclusive: 29.1 µM [cytotoxic, single point]
38 | Cc1ccc(C2=N/C(=C/c3cccs3)C(=O)N2Nc2ccccc2)cc1 | inconclusive: 25.9 µM [cytotoxic, single point]
39 | O=C(Nc1ccc(F)c(Cl)c1)C1Cc2c(-c3cccc(F)c3)ccnc2O1 (configuration not stated) | inconclusive: 29.1 µM [cytotoxic, single point]
40 | CC1=NN(C(N)=S)C(=O)C1N=Nc1ccc(Cl)cc1Cl (configuration not stated) | inconclusive: 29.1 µM [cytotoxic, single point]
41 | Cc1ccc(-c2nnc(SCc3nc4ccccc4[nH]3)n2Cc2ccco2)cc1 | inconclusive: 7.08 µM [cytotoxic, full curve]
42 | Cc1ccccc1CN1CCCC(C(=O)Nc2ccc(-c3ccn[nH]3)cc2)C1 (configuration not stated) | active: 11.6 µM
